Laboratory results: patent US20080275129A1, “Methods and Pharmaceutical Compositions for the Treatment of Neurological Damage” (Acure Pharma AB, priority 2005, published 2008)
For at least one compound, name, drawing or mass did not settle the structure.

Tested on: spinal chord injury in rats
Assay: Effect of guanabenz on spinal cord injury (Tarlov scale and capacity angle tests)
Format: in vivo
Details: incision of right dorsal horn T10-11, 10 micrograms in water (20 microlitres) topically on the injury 5 min after injury, evaluated over 12 hours, compared to non-treated or reference compound, FIGS. 1 and 2

N=C(N)N/N=C/c1c(Cl)cccc1Cl [guanabenz, [N-(2,6-dichlorophenyl)methyleneamino]guanidine]
anti-inflammatory effect: significant anti-inflammatory effect
motoric behaviour (Tarlov scale, capacity angle): improvement of motoric behaviour
